Assay results as given in article PMC10219916.
Results are given in words; binding and its absence hold for the method and conditions named. Binding seen in cells or lysates may run through a third protein. Some entries that bind do so weakly or less than the wild type. For part of these data: Where a sequence is shown, tags or fusion partners need not be part of it. Blank lines part the entries; values can stand above or below the molecule they belong to.

Sequences of proteins named here, by UniProt entry; tags and fusion partners are left off.
UniProt P01106: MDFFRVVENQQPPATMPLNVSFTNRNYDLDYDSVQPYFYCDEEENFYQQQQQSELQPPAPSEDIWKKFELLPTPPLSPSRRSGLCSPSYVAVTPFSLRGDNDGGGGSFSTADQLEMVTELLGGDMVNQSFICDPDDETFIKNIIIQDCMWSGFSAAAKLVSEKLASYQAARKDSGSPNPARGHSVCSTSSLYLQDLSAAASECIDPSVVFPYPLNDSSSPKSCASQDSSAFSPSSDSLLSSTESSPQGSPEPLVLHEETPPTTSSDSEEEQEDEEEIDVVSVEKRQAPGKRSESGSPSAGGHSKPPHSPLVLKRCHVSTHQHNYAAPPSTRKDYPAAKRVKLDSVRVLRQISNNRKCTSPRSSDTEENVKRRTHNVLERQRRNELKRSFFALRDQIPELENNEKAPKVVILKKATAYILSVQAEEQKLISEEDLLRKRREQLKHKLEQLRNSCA

Legend:
Flag-ATAD2 (human) = molecular target: T1, Flag-ATAD2 (human) (UniProt Q6PL18); experiment: co-IP; HEK293T co-transfected with Flag-ATAD2 and HA-c-Myc, 48 h; IP lysis buffer; anti-Flag magnetic beads, eluted with 3X Flag peptide; immunoblot
T1 sequence: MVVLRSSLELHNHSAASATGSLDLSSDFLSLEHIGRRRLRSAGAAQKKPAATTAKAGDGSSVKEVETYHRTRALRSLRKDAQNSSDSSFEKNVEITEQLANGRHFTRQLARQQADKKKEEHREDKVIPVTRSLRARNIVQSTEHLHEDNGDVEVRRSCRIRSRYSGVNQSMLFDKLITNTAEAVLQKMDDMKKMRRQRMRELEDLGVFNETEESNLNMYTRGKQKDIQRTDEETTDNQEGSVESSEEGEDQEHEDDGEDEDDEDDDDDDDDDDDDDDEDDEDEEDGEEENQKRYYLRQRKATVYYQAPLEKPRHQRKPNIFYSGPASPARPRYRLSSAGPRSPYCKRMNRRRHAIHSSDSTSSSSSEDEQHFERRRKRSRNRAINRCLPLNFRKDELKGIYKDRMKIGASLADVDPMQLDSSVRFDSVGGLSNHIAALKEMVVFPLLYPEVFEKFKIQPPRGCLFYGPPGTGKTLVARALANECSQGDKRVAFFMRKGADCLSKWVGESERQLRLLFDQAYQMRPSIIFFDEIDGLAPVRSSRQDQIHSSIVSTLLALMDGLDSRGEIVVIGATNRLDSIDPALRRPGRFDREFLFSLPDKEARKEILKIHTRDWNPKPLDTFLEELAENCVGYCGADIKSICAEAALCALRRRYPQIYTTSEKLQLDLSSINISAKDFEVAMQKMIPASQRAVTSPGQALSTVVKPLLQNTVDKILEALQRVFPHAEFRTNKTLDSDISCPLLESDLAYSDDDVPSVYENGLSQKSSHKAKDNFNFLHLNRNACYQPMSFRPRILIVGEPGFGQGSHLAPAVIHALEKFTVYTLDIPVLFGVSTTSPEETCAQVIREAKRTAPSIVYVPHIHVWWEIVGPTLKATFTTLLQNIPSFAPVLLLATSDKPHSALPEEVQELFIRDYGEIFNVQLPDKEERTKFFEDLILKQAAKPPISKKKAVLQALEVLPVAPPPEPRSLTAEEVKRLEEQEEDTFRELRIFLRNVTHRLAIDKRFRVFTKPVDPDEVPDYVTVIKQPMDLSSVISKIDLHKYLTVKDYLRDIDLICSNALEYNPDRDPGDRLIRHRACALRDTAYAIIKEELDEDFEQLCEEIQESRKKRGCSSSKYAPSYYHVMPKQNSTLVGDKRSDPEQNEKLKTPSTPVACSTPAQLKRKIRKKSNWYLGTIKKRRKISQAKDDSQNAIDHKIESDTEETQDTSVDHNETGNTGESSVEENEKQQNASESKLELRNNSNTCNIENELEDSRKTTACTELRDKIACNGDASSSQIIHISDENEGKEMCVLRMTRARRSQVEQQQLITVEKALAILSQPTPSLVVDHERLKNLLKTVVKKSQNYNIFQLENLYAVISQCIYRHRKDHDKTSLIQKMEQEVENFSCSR

[1] = molecular target: T2, ATPase family AAA domain-containing protein 2 (ATAD2), endogenous (human (endogenous; cell line not named, all cell lines of the paper are human)) (UniProt Q6PL18); experiment: co-IP; endogenous proteins; cells lysed in IP lysis buffer (20 mM Tris-HCl, 150 mM NaCl, 1% Triton X-100, pH 7.5); anti-ATAD2, anti-c-Myc or control IgG overnight at 4 °C, protein A + G agarose beads 4 h; immunoblot
T2 sequence: T1 sequence

[2] = molecular target: c-Myc, endogenous (human (endogenous; cell line not named, all cell lines of the paper are human)) (UniProt P01106); experiment: as above

- binding (Flag-ATAD2 (human)): binds
Molecule: HA-c-Myc (from UniProt P01106 1-454)

- binding [1]: binds
Molecule: c-Myc, endogenous (from UniProt P01106 1-454)

- binding [2]: binds
B1: ATPase family AAA domain-containing protein 2 (ATAD2), endogenous (protein, UniProt Q6PL18 1-1390)
chain: T1 sequence
